Measured values reported in article PMC9418443.
No constants are given. Whether binding was seen depends on the method and setting. A result given as binding can be weak or reduced; the word gives no strength. Sequences can lack the tags named with a protein.

Chains of the proteins cited; added tags and fusions are not shown. Lines headed by an entry give the natural chain unless they say otherwise; changes in a name come on top. Residues count along the entry.
UniProt P25822: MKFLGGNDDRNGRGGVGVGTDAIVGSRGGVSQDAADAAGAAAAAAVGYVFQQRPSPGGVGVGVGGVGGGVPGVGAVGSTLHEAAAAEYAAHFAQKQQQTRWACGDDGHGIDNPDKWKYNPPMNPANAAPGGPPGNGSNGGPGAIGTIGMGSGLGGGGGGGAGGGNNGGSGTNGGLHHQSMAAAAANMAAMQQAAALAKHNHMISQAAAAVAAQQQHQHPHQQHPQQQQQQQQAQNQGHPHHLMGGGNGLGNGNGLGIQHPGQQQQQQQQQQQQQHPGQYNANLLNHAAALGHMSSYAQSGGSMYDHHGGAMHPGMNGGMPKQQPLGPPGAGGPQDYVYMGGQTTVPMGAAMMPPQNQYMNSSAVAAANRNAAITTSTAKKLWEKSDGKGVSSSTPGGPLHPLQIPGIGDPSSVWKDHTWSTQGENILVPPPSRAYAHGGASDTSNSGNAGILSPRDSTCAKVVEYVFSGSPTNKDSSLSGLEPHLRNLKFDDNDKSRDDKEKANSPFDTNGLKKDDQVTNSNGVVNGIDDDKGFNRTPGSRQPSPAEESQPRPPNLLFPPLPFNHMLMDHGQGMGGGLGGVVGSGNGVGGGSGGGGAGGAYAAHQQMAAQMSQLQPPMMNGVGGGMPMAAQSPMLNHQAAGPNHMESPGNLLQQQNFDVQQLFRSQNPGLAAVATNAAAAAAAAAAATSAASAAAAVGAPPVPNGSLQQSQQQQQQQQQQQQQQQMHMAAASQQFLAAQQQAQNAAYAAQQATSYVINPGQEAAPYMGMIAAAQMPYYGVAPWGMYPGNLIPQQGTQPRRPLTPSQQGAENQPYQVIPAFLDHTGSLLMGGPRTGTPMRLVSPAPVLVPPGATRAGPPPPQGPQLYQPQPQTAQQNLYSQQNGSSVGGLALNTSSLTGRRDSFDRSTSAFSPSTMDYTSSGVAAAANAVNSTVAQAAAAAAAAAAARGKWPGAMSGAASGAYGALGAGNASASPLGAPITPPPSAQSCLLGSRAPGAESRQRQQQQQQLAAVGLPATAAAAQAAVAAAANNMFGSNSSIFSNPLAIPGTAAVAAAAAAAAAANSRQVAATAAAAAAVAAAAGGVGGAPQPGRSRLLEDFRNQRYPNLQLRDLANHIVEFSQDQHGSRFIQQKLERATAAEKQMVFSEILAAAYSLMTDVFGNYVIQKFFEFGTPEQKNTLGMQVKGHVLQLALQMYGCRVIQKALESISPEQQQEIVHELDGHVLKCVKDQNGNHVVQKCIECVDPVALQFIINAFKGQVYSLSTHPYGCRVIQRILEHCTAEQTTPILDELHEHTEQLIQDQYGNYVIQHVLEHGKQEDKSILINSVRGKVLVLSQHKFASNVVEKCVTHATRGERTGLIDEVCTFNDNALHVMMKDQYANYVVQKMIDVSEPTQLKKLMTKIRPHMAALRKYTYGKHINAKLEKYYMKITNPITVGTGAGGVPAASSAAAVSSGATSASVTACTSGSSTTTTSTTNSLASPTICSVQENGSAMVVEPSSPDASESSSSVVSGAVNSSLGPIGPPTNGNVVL
UniProt Q7K126, residues 522-844: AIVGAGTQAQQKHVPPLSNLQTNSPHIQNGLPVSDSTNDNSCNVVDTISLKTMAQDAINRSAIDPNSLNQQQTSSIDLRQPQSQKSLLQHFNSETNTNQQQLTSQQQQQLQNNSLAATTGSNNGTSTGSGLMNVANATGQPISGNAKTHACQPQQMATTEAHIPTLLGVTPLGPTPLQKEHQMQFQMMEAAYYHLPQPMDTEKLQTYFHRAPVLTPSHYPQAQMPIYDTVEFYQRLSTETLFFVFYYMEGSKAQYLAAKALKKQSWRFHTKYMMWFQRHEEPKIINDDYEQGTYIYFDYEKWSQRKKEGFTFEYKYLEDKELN

Assays:
Test in all cases: two-hybrid; yeast two-hybrid in S. cerevisiae Y2H Gold; baits on Gal4 DNA-binding domain (pGBKT7), preys on Gal4 activation domain (pGADT7); growth on -Leu -Trp -His -Ade plates with X-alpha-gal (ADE2, HIS3, MEL1 reporters), 30 °C
[1] = target: Pumilio RD3 with deletion of CR1, fused to the Gal4 DNA-binding domain (bait) (Drosophila melanogaster) (UniProt P25822)
[2] = target: Pumilio RD3 with deletion of CR4, fused to the Gal4 DNA-binding domain (bait) (Drosophila melanogaster) (UniProt P25822)
[3] = target: Pumilio RD3 with deletion of CR2, fused to the Gal4 DNA-binding domain (bait) (Drosophila melanogaster) (UniProt P25822)
[4] = target: Pumilio RD3 with deletion of CR3, fused to the Gal4 DNA-binding domain (bait) (Drosophila melanogaster) (UniProt P25822)
[5] = target: Pumilio RD3 with deletion of the P/Q region, fused to the Gal4 DNA-binding domain (bait) (Drosophila melanogaster) (UniProt P25822)

Measured: binding

Not3-C, C-terminal region of Drosophila Not3 (amino acids 522–844), fused to the Gal4 activation domain (prey) (from UniProt Q7K126 522-844) (domain or fragment)
binds: [1] | [2]

B1: Not2 subunit of the Drosophila CCR4–NOT complex, fused to the Gal4 activation domain (prey) (protein, UniProt Q94547 1-585)
chain: MANLNFQQPPRSIANAALAGRTTGGFGGSSLAGHVTPTSGMFQTDFANSYPGTANYGQAPQQQQQQQQQPQLSPNRNAQLSVGGPAISSGNRNANLFGQRQFVERRAMQGLGSGPMSNMGNFMQTGRGGYGTGGGGGGPLNNFHVFGGGGGSDTSTPALLDPTEFPSLTNARGQNDQTLPQSNPLQPPGSKPYGNFFTSFGMVKQPTSEQSEFTMSNEDFPALPGTQNSDGTTNAVGSVAGTGGSGGASTENHLDGTEKPMNSIVVSGSASGSSGSNVGVVGGNGLGAVGSGIGGLAVGGGGGAGSSGGGGVGGNAASGVVGGSHVGLVGSNSGIGGVNSVPNSNAMMGVGGGLGSGSGSSGSGAGGEHLNDNSSNDKLVKSGVQTSPDGKVTNIPATMVNNQFGMVGLLTFIRAAETDPNLVTLSLGTDLTGLGLNLNSQESLHTTFAGPFVAQPCRAQDVEFNVPPEYLINFAIRDKLTAPVLKKLQEDLLFFLFYTNIGDMMQLMAAAELHSREWRYHVEEKIWITRIPGIDQYEKNGTKERGTFYYFDAQSWKRLSKVFQIDPEKLDKCPNISAFMNGQSV
binds: all assays above
